The record followed here is patent US12146003B2 (Bausch Health Ireland Limited, priority 2013, dated 2024).

Where “and” joins values, the source holds several entries; their conditions need not be identical. Identical values can stand only once. *: point of attachment. Trt = c1ccc(C(c2ccccc2)(c2ccccc2)*)cc1; Fmoc = O=C(OCC1c2ccccc2-c2ccccc21)*; Acm = CC(=O)NC*; tBu = CC(C)(C)*

The nature of data set [1]: general procedure: hybrid (solid and solution phase) peptide synthesis; 2-chlorotrityl chloride (2-ClTrt) resin; HBTU/Cl-HOBt/DIEA (fragment condensation in solution). Conditions: counter-ion exchange with ammonium acetate/AcOH.
Data set [2] is described as follows: general procedure: hybrid (solid and solution phase) peptide synthesis; 2-chlorotrityl chloride resin; HBTU/Cl-HOBt/DIEA (fragment condensation in solution). Conditions: whole synthesis, counter-ion exchange with ammonium acetate/AcOH.
The mark [3] stands for this setting: oxidative folding step, RP-HPLC, 215 nm.
[4] abbreviates: whole synthesis, RP-HPLC, 215 nm, scale 200 mmol.
Setting [5] is: whole synthesis, scale 200 mmol.

As to “Asn^1-Asp^2-Glu^3-Cys^4-Glu^5-Leu^6-Cys^7-Val^8-Asn^9-Val^10-Ala^11-Cys^12-Thr^13-Gly^14-Cys^15-Leu^16”, the “crude HPLC purity” value in data set [1] (setting [3]) is reported as 55.0% HPLC. Moreover, the “final HPLC purity” value in data set [1] (setting [3]) was 96.1% pure; in data set [1] (purification step, RP-HPLC, 215 nm) it was 97.9% and 98.47%; in data set [1] (purification step, RP-HPLC, 215 nm, run 1), 97.2% HPLC purity; in data set [1] (purification step, RP-HPLC, 215 nm, run 2), 97.9%; in data set [1] (whole synthesis, UPLC 215 nm, scale 50 g), “˜98%”. Also, the step yield in data set [1] (purification step) was 74% and 93%; in data set [1] (purification step, run 1), 66.6%; in data set [1] (purification step, run 2), 86.0%.

Fmoc-C(Acm)VNVAC(Trt)T(tBu)G-OH: the “crude HPLC purity” value in data set [1] (whole synthesis, RP-HPLC, 215 nm, scale 3.4 mmol) came out at 87.8%; in data set [1] (setting [4]), 90.1%. The crude yield in data set [1] (whole synthesis, scale 3.4 mmol) was 61.3%; in data set [1] (setting [5]), 66.8%. Moreover, the crude mass in data set [1] (setting [5]) is reported as 213.7 g; in data set [2] (scale 3.4 mmol), 3.337 g.

Turning to “Boc-Asn (Trt)-Asp (OtBu)-Glu (OtBu)-Cys (Trt)-Glu (OtBu)-Leu-OH”, the “crude HPLC purity” value in data set [1] (whole synthesis, RP-HPLC, 215 nm, scale 5.2 mmol) is recorded as 94.6%; in data set [1] (setting [4]), 94.2%. For the same substance, the crude yield in data set [1] (whole synthesis, scale 5.2 mmol) came out at 76.9%; in data set [1] (setting [5]), 83.7%. The crude mass in data set [1] (setting [5]) worked out at 247.0 g; in data set [2] (scale 5.2 mmol), 5.896 g.
